This is an account of results in article PMC4825927.

Sequences of proteins named here, by UniProt entry; tags and fusion partners are left off. Residues count along the entry.
UniProt Q8ZNR3, residues 56-782: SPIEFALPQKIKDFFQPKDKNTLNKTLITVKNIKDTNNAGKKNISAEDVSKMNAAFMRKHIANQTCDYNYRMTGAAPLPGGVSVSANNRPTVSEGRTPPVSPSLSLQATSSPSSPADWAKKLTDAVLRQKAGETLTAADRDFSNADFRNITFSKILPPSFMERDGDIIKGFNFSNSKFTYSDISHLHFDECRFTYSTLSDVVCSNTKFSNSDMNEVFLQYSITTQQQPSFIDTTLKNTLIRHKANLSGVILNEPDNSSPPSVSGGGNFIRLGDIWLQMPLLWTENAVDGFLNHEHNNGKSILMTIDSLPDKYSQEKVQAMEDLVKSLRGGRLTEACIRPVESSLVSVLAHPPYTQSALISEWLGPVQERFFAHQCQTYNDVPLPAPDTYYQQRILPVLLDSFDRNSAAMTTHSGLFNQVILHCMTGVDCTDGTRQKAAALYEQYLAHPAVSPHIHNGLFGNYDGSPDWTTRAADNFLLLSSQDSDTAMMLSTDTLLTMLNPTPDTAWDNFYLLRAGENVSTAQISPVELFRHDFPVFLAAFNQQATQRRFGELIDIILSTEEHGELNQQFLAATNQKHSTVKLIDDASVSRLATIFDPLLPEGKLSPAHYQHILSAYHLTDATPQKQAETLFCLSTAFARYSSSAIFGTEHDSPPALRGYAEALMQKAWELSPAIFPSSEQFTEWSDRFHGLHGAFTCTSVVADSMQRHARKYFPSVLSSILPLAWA

These are yes or no findings as the source states them, for the method shown. Binding seen in cells or lysates may run through a third protein. Some binding calls cover weakened binding; strength is not graded here. Tags and fused reporters may be left off the sequences shown.

The target of assay [1] is FLAG-epitope-tagged SopA^56-782 (wild type), pRK5 (Salmonella enterica serovar Typhimurium) (UniProt Q8ZNR3). Kind of assay: co-IP; HEK 293T transiently co-transfected with a FLAG-tagged and an M45-tagged protein; lysis in 20 mM Hepes pH 7.4, 150 mM NaCl, 0.2% Triton-X-100; anti-FLAG M2 agarose 2 h; Western blot with anti-M45 and anti-FLAG. A general note: In western blotting, separated proteins are transferred to a membrane and probed.

Assay [2] deals with T1, FLAG-epitope-tagged RIG-I (full length) (human) (UniProt O95786).
T1 sequence: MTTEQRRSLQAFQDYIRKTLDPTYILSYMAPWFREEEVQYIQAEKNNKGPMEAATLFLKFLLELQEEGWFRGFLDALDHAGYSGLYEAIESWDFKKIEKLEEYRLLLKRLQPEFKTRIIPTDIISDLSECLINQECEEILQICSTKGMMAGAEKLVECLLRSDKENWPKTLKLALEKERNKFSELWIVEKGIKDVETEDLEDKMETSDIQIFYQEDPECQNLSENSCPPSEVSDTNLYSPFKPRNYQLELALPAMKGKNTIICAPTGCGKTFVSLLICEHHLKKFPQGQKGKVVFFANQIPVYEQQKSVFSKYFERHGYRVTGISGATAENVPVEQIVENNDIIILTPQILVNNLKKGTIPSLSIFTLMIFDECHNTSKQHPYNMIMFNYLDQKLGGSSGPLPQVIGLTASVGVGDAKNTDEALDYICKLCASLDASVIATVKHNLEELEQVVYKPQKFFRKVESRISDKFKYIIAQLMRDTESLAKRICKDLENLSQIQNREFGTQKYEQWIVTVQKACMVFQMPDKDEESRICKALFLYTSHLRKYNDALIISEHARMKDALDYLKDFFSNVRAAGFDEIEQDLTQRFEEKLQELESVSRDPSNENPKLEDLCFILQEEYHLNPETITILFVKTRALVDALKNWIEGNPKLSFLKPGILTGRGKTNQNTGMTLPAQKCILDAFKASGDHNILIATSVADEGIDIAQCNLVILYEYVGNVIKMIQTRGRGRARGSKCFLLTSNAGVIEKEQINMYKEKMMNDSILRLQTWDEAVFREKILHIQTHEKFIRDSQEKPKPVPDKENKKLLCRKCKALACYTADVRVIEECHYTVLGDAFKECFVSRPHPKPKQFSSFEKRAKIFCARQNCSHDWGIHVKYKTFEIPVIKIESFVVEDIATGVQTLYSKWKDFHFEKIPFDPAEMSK
The description is as above.

B1: M45-epitope-tagged TRIM56, pRK5 (protein, UniProt Q9BRZ2 1-755)
chain: MVSHGSSPSLLEALSSDFLACKICLEQLRAPKTLPCLHTYCQDCLAQLADGGRVRCPECRETVPVPPEGVASFKTNFFVNGLLDLVKARACGDLRAGKPACALCPLVGGTSTGGPATARCLDCADDLCQACADGHRCTRQTHTHRVVDLVGYRAGWYDEEARERQAAQCPQHPGEALRFLCQPCSQLLCRECRLDPHLDHPCLPLAEAVRARRPGLEGLLAGVDNNLVELEAARRVEKEALARLREQAARVGTQVEEAAEGVLRALLAQKQEVLGQLRAHVEAAEEAARERLAELEGREQVARAAAAFARRVLSLGREAEILSLEGAIAQRLRQLQGCPWAPGPAPCLLPQLELHPGLLDKNCHLLRLSFEEQQPQKDGGKDGAGTQGGEESQSRREDEPKTERQGGVQPQAGDGAQTPKEEKAQTTREEGAQTLEEDRAQTPHEDGGPQPHRGGRPNKKKKFKGRLKSISREPSPALGPNLDGSGLLPRPIFYCSFPTRMPGDKRSPRITGLCPFGPREILVADEQNRALKRFSLNGDYKGTVPVPEGCSPCSVAALQSAVAFSASARLYLINPNGEVQWRRALSLSQASHAVAALPSGDRVAVSVAGHVEVYNMEGSLATRFIPGGKASRGLRALVFLTTSPQGHFVGSDWQQNSVVICDGLGQVVGEYKGPGLHGCQPGSVSVDKKGYIFLTLREVNKVVILDPKGSLLGDFLTAYHGLEKPRVTTMVDGRYLVVSLSNGTIHIFRVRSPDS
Consider B1, for which the binding result in assay [1] is “binds”.

B2: M45-epitope-tagged TRIM65, pRK5 (protein, UniProt Q6PJ69 1-517)
chain: MAAQLLEEKLTCAICLGLYQDPVTLPCGHNFCGACIRDWWDRCGKACPECREPFPDGAELRRNVALSGVLEVVRAGPARDPGPDPGPGPDPAARCPRHGRPLELFCRTEGRCVCSVCTVRECRLHERALLDAERLKREAQLRASLEVTQQQATQAEGQLLELRKQSSQIQNSACILASWVSGKFSSLLQALEIQHTTALRSIEVAKTQALAQARDEEQRLRVHLEAVARHGCRIRELLEQVDEQTFLQESQLLQPPGPLGPLTPLQWDEDQQLGDLKQLLSRLCGLLLEEGSHPGAPAKPVDLAPVEAPGPLAPVPSTVCPLRRKLWQNYRNLTFDPVSANRHFYLSRQDQQVKHCRQSRGPGGPGSFELWQVQCAQSFQAGHHYWEVRASDHSVTLGVSYPQLPRCRLGPHTDNIGRGPCSWGLCVQEDSLQAWHNGEAQRLPGVSGRLLGMDLDLASGCLTFYSLEPQTQPLYTFHALFNQPLTPVFWLLEGRTLTLCHQPGAVFPLGPQEEVLS
On to B2, for which the binding entry in assay [2] is on record as “no binding”; in assay [1], “binds”.
